Source: the supplement of paper PMC4635364
Where a name gives a salt, the structure may show the parent alone. The list shows a part of the results. Single values are uncertain here, since repeats match poorly.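 Cells: ReNCell VM human fetal ventral-midbrain neural progenitors, differentiated mitogen-free. Blinded raters compared doublecortin-stained (early neurons) or tyrosine hydroxylase-stained (dopaminergic neurons) images with untreated wells, where 0 means no change. After repeats and both raters were averaged, compounds scoring 2 or above became hits for retesting.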

Tests used:
ReNCell VM [1] = assay: neuronal differentiation score (DCX+ cell fraction vs untreated, manual image score) (score (-3 to 3)); higher = more neuronal differentiation; conditions: 2 uM, 2 weeks
ReNCell VM [2] = assay: dopaminergic neuron differentiation score (TH+ cell fraction vs untreated, manual image score) (score (0 to 3)); higher = more TH+ dopaminergic neuron differentiation; conditions: 2 uM, 4 weeks, BDNF 10 ng/ml + GDNF 10 ng/ml

N#C/C(=C\c1ccc(O)c(O)c1)C(=O)OCCc1cccs1
neuronal differentiation score (ReNCell VM [1]; library: Tocriscreen): inactive: 0
dopaminergic neuron differentiation score (ReNCell VM [2]; library: Tocriscreen): inactive: 0

C=CCSCC1Nc2cc(Cl)c(S(N)(=O)=O)cc2S(=O)(=O)N1 (centres undefined)
neuronal differentiation score (ReNCell VM [1]; library: Spectrum): inactive: 0
dopaminergic neuron differentiation score (ReNCell VM [2]; library: Spectrum): inactive: 0

O=C1NC(=O)c2cc(Nc3ccc(F)cc3)c(Nc3ccc(F)cc3)cc21
neuronal differentiation score (ReNCell VM [1]; library: Tocriscreen): inactive: 0
dopaminergic neuron differentiation score (ReNCell VM [2]; library: Tocriscreen): inactive: 0

NC12CC3CC(CC(C3)C1)C2
neuronal differentiation score (ReNCell VM [1]; library: Spectrum): inactive: 0
dopaminergic neuron differentiation score (ReNCell VM [2]; library: Spectrum): inactive: 0

Clc1ccc(COC(Cn2ccnc2)c2ccc(Cl)cc2Cl)c(Cl)c1 (centres undefined)
neuronal differentiation score (ReNCell VM [1]; library: Spectrum): inactive: 0
dopaminergic neuron differentiation score (ReNCell VM [2]; library: Spectrum): inactive: 0

COc1ccc(-c2oc3c(CC=C(C)C)c(O[C@@H]4O[C@H](CO)[C@@H](O)[C@H](O)[C@H]4O)cc(O)c3c(=O)c2O[C@@H]2O[C@@H](C)[C@H](O)[C@@H](O)[C@H]2O)cc1
neuronal differentiation score (ReNCell VM [1]; library: Spectrum): inactive: 0
dopaminergic neuron differentiation score (ReNCell VM [2]; library: Spectrum): inactive: 0

Cc1coc2c1C(=O)C(=O)c1c-2ccc2c1CCCC2(C)C
neuronal differentiation score (ReNCell VM [1]; library: Spectrum): inactive: 0
dopaminergic neuron differentiation score (ReNCell VM [2]; library: Spectrum): inactive: 0

CN1CCCCC1CCN1c2ccccc2Sc2ccc([S+](C)[O-])cc21 (centres undefined)
neuronal differentiation score (ReNCell VM [1]; library: Spectrum): inactive: 0
dopaminergic neuron differentiation score (ReNCell VM [2]; library: Spectrum): inactive: 0

O=c1[nH]c2cc(C(F)(F)F)c(N3CCOCC3)cc2n(CP(=O)(O)O)c1=O
neuronal differentiation score (ReNCell VM [1]; library: Tocriscreen): inactive: 0
dopaminergic neuron differentiation score (ReNCell VM [2]; library: Tocriscreen): inactive: 0

CCCC(=O)Nc1ncnc2c1ncn2[C@@H]1O[C@@H]2COP(=O)(O)O[C@H]2[C@H]1OC(=O)CCC [Dibutyryl-cAMP, sodium salt]
neuronal differentiation score (ReNCell VM [1]; library: Tocriscreen): inactive: -1
dopaminergic neuron differentiation score (ReNCell VM [2]; library: Tocriscreen): inactive: 0

NC(N)=NC(=O)c1nc(Cl)c(N2CCCCCC2)nc1N [5-(N,N-hexamethylene)amiloride]
neuronal differentiation score (ReNCell VM [1]; library: LOPAC): inactive: 0
dopaminergic neuron differentiation score (ReNCell VM [2]; library: LOPAC): inactive: 0

N=C(CC(O)COc1ccccc1-c1ccccc1)N1CCCCC1 (centres undefined)
neuronal differentiation score (ReNCell VM [1]; library: Tocriscreen): inactive: 0
dopaminergic neuron differentiation score (ReNCell VM [2]; library: Tocriscreen): inactive: 0

C=CC(C)(O)CC1C(C)(O)CCC2C(C)(C)CCCC21C (centres undefined)
neuronal differentiation score (ReNCell VM [1]; library: Natural): inactive: 0
dopaminergic neuron differentiation score (ReNCell VM [2]; library: Natural): inactive: 0

CC(C)NNC(=O)c1ccncc1 [Iproniazide phosphate]
neuronal differentiation score (ReNCell VM [1]; library: Prestwick): inactive: 0
dopaminergic neuron differentiation score (ReNCell VM [2]; library: Prestwick): inactive: 0

OCCN1C[C@H](O)[C@@H](O)[C@H](O)[C@H]1CO [Miglitol]
neuronal differentiation score (ReNCell VM [1]; library: Prestwick): inactive: 0
dopaminergic neuron differentiation score (ReNCell VM [2]; library: Prestwick): inactive: 0

CCCCCCCC/C=C\CCCCCCCC(=O)NCCO [N-Oleoylethanolamine]
neuronal differentiation score (ReNCell VM [1]; library: LOPAC): inactive: 0
dopaminergic neuron differentiation score (ReNCell VM [2]; library: LOPAC): inactive: 0

COc1ccc(Cl)cc1C(=O)NCCc1ccc(S(=O)(=O)NC(=O)NC2CCCCC2)cc1
neuronal differentiation score (ReNCell VM [1]; library: Spectrum): inactive: 0
dopaminergic neuron differentiation score (ReNCell VM [2]; library: Spectrum): inactive: 0

CO[C@H]1C[C@H](O[C@H]2[C@H](C)[C@@H](O[C@@H]3O[C@H](C)C[C@H](N(C)C)[C@H]3OC(C)=O)[C@@H](C)C[C@@]3(CO3)C(=O)[C@H](C)[C@@H](OC(C)=O)[C@@H](C)[C@@H](C)OC(=O)[C@@H]2C)O[C@@H](C)[C@@H]1OC(C)=O [Troleandomycin]
neuronal differentiation score (ReNCell VM [1]; library: Prestwick): inactive: 0
dopaminergic neuron differentiation score (ReNCell VM [2]; library: Prestwick): inactive: 0

NS(=O)(=O)c1cc(C2(O)NC(=O)c3ccccc32)ccc1Cl (centres undefined)
neuronal differentiation score (ReNCell VM [1]; library: Spectrum): inactive: 0
dopaminergic neuron differentiation score (ReNCell VM [2]; library: Spectrum): inactive: 0

O=C1N=C(O)NC1(c1ccccc1)c1ccccc1
neuronal differentiation score (ReNCell VM [1]; library: Spectrum): inactive: 0
dopaminergic neuron differentiation score (ReNCell VM [2]; library: Spectrum): inactive: 0

CC(C)NCC(O)c1ccc(NS(C)(=O)=O)cc1 (centres undefined)
neuronal differentiation score (ReNCell VM [1]; library: Spectrum): active: 3
dopaminergic neuron differentiation score (ReNCell VM [2]; library: Spectrum): inactive: 0

CC1(C)CCC(C)(C)c2cc(C(=O)Nc3ccc(C(=O)O)cc3)ccc21
neuronal differentiation score (ReNCell VM [1]; library: Tocriscreen): inactive: 0
dopaminergic neuron differentiation score (ReNCell VM [2]; library: Tocriscreen): inactive: 0

CCOC(=O)C1=C(C)NC(C)=C(C(=O)OC)C1c1cccc(Cl)c1Cl (centres undefined)
neuronal differentiation score (ReNCell VM [1]; library: Spectrum): inactive: 1
dopaminergic neuron differentiation score (ReNCell VM [2]; library: Spectrum): inactive: 0

Cc1cc(O)c2c(c1)C(=O)c1cc(O)cc(O)c1C2=O
neuronal differentiation score (ReNCell VM [1]; library: Spectrum): inactive: 0
dopaminergic neuron differentiation score (ReNCell VM [2]; library: Spectrum): inactive: 0

Nc1nc(NCC2CCC(CNS(=O)(=O)c3cccc4ccccc34)CC2)nc2ccccc12 (centres undefined)
neuronal differentiation score (ReNCell VM [1]; library: Tocriscreen): inactive: 0
dopaminergic neuron differentiation score (ReNCell VM [2]; library: Tocriscreen): inactive: 0

O=C1O[C@H]([C@@H](O)CO)C(O)=C1O
neuronal differentiation score (ReNCell VM [1]; library: Spectrum): inactive: 0
dopaminergic neuron differentiation score (ReNCell VM [2]; library: Spectrum): inactive: 0

Cc1ccccc1/C=C/C1=NCCN1 [Metrazoline oxalate]
neuronal differentiation score (ReNCell VM [1]; library: LOPAC): inactive: 0
dopaminergic neuron differentiation score (ReNCell VM [2]; library: LOPAC): inactive: 0

CC(=O)NCCc1ccc(O)c(-c2c(O)c(O)c3c(c2O)C(=O)c2c(cc(O)c(C(=O)O)c2C(=O)O)C3=O)c1
neuronal differentiation score (ReNCell VM [1]; library: Spectrum): inactive: 0
dopaminergic neuron differentiation score (ReNCell VM [2]; library: Spectrum): inactive: 0

CN(C)[C@@H]1C(O)=C(C(N)=O)C(=O)[C@@]2(O)C(O)=C3C(=O)c4c(O)cccc4[C@@](C)(O)[C@H]3C[C@@H]12 [Tetracycline hydrochloride]
neuronal differentiation score (ReNCell VM [1]; library: Prestwick): inactive: 1
dopaminergic neuron differentiation score (ReNCell VM [2]; library: Prestwick): inactive: 0

O=C(CCCN1CC=C(n2c(=O)[nH]c3ccccc32)CC1)c1ccc(F)cc1
neuronal differentiation score (ReNCell VM [1]; library: Spectrum): inactive: 0
dopaminergic neuron differentiation score (ReNCell VM [2]; library: Spectrum): inactive: 0

CCCCC(O)c1ccccc1 (centres undefined)
neuronal differentiation score (ReNCell VM [1]; library: Spectrum): inactive: 0
dopaminergic neuron differentiation score (ReNCell VM [2]; library: Spectrum): inactive: 0

CC(C)[C@H]1c2ccc(F)cc2CC[C@@]1(CCN(C)CCCc1nc2ccccc2[nH]1)OC(=O)C1CC1 [NNC 55-0396 dihydrochloride]
neuronal differentiation score (ReNCell VM [1]; library: Tocriscreen): inactive: 0
dopaminergic neuron differentiation score (ReNCell VM [2]; library: Tocriscreen): inactive: 0
